Data from the supplement of paper PMC11006884.
The list shows a part of the results, in another mix than the full data.

By UniProt entry, the sequences of proteins in these tests, tags left out. Where a name states a change or a piece, a line headed by the entry shows the natural chain unless it says otherwise.
UniProt Q8N3C0, whole entry, looked up: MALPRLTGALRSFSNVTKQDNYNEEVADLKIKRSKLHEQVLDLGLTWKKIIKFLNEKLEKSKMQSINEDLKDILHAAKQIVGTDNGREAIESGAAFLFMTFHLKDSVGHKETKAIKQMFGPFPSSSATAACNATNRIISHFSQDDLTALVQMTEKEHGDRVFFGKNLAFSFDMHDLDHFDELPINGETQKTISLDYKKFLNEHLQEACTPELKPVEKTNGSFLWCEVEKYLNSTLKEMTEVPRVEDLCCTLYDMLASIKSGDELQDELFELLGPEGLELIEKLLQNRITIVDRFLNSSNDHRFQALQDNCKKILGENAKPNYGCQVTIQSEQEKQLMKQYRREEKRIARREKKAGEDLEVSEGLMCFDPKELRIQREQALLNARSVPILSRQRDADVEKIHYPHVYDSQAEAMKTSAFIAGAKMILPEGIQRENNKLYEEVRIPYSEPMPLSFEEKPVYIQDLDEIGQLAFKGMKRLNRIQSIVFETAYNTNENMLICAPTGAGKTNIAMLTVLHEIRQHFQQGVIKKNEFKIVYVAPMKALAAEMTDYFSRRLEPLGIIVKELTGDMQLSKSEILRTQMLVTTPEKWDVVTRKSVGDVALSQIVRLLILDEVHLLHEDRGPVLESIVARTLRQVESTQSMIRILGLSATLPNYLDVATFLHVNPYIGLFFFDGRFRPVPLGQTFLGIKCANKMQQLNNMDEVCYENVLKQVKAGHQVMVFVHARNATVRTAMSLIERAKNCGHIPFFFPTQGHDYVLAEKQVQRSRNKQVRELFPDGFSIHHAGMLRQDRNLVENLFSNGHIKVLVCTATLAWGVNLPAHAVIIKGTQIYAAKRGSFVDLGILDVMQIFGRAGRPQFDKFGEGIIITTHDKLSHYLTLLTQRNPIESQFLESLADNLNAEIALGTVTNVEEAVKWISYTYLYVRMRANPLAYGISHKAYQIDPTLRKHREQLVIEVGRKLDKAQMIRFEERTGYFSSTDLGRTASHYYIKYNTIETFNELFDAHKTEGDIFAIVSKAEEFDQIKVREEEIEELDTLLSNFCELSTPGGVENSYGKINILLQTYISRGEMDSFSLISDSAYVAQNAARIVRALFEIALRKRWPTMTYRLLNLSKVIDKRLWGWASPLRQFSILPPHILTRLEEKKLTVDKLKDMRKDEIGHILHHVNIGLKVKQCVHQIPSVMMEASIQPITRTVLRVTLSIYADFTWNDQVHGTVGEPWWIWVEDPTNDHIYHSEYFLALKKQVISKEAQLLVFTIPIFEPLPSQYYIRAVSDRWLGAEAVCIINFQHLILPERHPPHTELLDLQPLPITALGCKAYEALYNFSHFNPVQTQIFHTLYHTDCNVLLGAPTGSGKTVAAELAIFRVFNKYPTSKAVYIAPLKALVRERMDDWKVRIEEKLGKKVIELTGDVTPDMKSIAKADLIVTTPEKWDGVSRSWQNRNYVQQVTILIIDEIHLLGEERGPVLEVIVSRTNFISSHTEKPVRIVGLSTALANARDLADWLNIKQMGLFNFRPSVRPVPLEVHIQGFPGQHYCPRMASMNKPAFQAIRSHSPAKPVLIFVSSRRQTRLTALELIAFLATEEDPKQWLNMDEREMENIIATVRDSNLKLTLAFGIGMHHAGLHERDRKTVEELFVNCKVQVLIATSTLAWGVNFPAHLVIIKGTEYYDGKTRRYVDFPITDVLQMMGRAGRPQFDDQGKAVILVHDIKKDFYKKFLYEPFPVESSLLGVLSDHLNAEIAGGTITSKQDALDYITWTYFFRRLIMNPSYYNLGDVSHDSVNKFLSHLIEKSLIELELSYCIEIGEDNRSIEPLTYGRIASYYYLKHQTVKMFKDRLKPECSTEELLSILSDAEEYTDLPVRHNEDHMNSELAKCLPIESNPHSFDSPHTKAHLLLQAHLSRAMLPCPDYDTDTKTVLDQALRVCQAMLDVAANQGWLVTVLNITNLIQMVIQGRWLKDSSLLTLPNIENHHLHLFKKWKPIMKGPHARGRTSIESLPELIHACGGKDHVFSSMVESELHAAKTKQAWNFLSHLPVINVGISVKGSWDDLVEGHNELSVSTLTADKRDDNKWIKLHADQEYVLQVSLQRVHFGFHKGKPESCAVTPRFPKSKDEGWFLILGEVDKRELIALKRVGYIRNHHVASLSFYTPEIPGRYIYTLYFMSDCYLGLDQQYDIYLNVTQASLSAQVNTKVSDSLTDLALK
UniProt Q8WTS6: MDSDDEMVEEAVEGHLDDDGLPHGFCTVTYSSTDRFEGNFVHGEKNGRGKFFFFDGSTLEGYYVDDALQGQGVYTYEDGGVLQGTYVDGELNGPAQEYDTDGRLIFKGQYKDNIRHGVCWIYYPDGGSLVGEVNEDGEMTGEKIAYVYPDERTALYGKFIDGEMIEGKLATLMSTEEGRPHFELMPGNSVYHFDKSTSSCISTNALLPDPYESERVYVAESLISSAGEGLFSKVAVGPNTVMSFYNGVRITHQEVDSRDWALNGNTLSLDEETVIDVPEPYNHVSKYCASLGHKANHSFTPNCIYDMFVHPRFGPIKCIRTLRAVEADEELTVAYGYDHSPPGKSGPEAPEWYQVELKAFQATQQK
UniProt Q8ND82: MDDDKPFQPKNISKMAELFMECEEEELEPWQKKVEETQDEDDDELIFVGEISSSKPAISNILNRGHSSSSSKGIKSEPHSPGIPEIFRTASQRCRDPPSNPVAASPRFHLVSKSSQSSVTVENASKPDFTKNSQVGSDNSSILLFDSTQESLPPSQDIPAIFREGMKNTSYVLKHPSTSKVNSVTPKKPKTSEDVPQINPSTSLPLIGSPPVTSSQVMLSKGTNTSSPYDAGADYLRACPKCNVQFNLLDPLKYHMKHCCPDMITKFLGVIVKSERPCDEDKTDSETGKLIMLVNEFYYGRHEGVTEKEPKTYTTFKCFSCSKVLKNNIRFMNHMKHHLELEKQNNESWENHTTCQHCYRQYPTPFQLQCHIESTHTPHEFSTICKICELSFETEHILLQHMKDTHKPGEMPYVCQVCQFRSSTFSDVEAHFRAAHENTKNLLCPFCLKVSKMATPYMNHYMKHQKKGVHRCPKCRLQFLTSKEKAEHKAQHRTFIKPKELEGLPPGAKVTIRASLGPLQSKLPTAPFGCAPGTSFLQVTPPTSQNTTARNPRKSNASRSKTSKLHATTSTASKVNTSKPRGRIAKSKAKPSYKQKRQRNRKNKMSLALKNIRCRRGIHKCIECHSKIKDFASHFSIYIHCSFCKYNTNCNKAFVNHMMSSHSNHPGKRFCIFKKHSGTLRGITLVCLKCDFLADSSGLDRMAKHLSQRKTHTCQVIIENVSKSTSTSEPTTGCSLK
UniProt Q8NF37: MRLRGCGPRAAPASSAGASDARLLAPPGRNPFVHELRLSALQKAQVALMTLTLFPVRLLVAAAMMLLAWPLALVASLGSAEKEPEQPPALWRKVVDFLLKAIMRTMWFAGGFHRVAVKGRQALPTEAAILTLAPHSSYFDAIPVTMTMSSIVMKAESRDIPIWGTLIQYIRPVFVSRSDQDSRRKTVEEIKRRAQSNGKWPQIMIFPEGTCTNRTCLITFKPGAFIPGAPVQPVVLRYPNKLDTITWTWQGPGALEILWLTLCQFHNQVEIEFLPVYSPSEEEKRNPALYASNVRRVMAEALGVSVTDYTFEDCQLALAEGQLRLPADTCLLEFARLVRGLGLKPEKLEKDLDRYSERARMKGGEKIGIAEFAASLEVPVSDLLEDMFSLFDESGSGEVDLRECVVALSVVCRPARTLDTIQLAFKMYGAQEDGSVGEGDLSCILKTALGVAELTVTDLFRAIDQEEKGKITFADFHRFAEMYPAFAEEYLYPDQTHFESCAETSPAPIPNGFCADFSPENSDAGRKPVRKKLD
UniProt Q8WUD1: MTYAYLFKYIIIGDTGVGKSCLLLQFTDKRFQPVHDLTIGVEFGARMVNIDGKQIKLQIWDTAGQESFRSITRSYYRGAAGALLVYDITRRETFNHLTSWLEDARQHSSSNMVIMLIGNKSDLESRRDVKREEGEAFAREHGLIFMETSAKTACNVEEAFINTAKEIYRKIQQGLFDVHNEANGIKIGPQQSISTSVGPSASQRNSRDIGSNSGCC
UniProt Q8NI27: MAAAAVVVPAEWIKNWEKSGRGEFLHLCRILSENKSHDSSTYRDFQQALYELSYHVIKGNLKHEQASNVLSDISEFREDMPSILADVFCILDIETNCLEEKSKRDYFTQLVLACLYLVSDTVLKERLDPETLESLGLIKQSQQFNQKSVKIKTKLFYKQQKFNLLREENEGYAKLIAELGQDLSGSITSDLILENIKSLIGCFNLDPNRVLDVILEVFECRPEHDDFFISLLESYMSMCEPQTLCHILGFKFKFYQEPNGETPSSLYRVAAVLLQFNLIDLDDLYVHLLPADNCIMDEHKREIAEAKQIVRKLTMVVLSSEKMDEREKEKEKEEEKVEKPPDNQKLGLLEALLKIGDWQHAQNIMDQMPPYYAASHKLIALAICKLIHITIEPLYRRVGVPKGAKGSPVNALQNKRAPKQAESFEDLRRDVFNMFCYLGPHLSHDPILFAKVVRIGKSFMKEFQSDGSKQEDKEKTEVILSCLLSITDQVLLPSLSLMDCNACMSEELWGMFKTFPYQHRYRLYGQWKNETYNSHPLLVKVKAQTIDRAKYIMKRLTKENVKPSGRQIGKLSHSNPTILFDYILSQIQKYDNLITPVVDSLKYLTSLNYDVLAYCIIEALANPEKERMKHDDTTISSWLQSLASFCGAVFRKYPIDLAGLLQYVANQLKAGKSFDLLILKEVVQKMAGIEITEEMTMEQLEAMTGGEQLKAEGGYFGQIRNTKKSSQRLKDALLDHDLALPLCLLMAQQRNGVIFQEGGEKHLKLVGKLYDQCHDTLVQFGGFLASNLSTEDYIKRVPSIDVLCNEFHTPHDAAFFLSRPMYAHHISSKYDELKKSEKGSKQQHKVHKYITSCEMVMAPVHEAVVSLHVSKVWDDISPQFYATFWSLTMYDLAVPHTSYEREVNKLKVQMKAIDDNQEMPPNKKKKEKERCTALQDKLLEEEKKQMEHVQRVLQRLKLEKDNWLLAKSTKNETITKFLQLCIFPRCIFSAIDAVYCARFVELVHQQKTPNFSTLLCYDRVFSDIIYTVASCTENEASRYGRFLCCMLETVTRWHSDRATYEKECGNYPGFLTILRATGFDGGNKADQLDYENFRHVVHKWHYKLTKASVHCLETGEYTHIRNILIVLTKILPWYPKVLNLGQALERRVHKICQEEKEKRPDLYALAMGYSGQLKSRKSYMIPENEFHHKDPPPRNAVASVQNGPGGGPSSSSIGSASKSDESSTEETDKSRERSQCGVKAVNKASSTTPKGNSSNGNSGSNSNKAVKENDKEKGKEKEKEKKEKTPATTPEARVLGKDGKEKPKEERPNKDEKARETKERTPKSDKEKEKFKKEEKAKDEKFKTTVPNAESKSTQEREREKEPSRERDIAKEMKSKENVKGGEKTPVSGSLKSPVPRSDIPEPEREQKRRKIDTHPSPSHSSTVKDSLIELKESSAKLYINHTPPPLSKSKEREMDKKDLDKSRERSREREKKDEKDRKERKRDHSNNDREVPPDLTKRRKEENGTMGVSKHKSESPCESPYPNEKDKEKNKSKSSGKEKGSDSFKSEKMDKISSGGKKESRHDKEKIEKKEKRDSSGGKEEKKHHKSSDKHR
UniProt Q8WUA4: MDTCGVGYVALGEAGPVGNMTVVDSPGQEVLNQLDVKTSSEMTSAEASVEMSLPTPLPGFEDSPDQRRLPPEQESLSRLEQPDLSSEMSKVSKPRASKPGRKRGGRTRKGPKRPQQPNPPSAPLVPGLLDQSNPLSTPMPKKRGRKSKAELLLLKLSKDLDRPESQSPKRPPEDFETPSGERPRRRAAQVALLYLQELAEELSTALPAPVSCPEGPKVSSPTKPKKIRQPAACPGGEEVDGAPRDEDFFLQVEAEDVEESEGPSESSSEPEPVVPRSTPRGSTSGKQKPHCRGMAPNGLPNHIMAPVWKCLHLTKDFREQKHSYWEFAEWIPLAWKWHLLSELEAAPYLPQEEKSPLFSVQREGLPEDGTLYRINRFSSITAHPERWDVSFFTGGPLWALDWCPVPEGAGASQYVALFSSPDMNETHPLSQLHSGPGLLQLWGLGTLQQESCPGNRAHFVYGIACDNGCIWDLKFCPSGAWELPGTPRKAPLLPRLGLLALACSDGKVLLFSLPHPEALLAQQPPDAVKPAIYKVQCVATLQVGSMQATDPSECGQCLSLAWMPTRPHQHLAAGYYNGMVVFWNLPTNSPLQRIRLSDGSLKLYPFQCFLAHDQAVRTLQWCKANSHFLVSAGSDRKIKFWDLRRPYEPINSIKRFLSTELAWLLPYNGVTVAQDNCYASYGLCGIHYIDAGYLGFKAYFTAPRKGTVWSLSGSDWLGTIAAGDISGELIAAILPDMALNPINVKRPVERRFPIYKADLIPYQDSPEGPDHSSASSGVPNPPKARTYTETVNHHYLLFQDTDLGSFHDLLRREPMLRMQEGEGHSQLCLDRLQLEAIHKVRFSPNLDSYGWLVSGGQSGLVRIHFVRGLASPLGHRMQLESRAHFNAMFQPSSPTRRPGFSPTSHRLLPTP

Compound: COC(=O)C#Cc1ccccc1 [methyl 3-phenylpropiolate]
Assay: log2 ratio of iodoacetamide-alkyne labeling of the cysteine site, DMSO over compound (competition); higher = stronger covalent engagement of the cysteine by the compound, active = 1 or more
Settings: 500 µM; treatment time 1 h; system: HEK293T cell lysate
Summary of the method: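 HEK293T lysate (2 mg/mL) was treated with DMSO or electrophile (500 µM, 1 h, ambient temperature), then iodoacetamide alkyne (1 h), clicked to sCIP-TMT reagents, pooled, trypsin-digested overnight at 37 °C, streptavidin-enriched and acid-eluted. Peptides were run on Orbitrap Eclipse LC-MS/MS with FAIMS and quantified in FragPipe. The log2 competition ratio per cysteine is mean control-channel over mean compound-channel reporter intensity. Duplicate channels and three replicates were used, and cysteines quantified in only one replicate were excluded.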

log2 ratio of iodoacetamide-alkyne labeling, inactive:
ASCC3 C742 (UniProt Q8N3C0) 0.933
SETD7 C200 (UniProt Q8WTS6) 0.34
NPEPL1 C504 (UniProt Q8NDH3) -0.0356
EXOC6 C135 (UniProt Q8TAG9) 0.23
ZNF280C C94 (UniProt Q8ND82) 0.666
WDTC1 C312 (UniProt Q8N5D0) 0.954
LPCAT1 C216 (UniProt Q8NF37) 0.211
PHIP C130 (UniProt Q8WWQ0) 0.375
GPT2 C142 (UniProt Q8TD30) 0.269
RAB2B C154 (UniProt Q8WUD1) 0.12
ATXN2L C58 (UniProt Q8WWM7) 0.348
INTS1 C185 (UniProt Q8N201) -0.114
THOC2 C1064 (UniProt Q8NI27) 0.483
DYNC2H1 C3975 (UniProt Q8NCM8) 0.133
GTF3C2 C608 (UniProt Q8WUA4) 0.147
ARMC10 C59 (UniProt Q8N2F6) 0.628
PAF1 C218 (UniProt Q8N7H5) 0.362
ARHGAP18 C323 (UniProt Q8N392) 0.19
LZTR1 C342 (UniProt Q8N653) 0.244
BANP C113 (UniProt Q8N9N5) 0.609
CMAS C422 (UniProt Q8NFW8) 0.375

Six neighbouring records already listed:
log2 ratio of iodoacetamide-alkyne labeling, inactive:
ATXN2L C58 (UniProt Q8WWM7) 0.348
INTS1 C185 (UniProt Q8N201) -0.114
THOC2 C1064 (UniProt Q8NI27) 0.483
DYNC2H1 C3975 (UniProt Q8NCM8) 0.133
GTF3C2 C608 (UniProt Q8WUA4) 0.147
ARMC10 C59 (UniProt Q8N2F6) 0.628
